In all, about 33,000 sequences were measured (“E-score (-0.5 to 0.5)”: median about -0.016, highest 2% from about 0.3 on). The list shows a part of the results.
Target: T1, Yer184c (UniProt P39961)
T1 sequence: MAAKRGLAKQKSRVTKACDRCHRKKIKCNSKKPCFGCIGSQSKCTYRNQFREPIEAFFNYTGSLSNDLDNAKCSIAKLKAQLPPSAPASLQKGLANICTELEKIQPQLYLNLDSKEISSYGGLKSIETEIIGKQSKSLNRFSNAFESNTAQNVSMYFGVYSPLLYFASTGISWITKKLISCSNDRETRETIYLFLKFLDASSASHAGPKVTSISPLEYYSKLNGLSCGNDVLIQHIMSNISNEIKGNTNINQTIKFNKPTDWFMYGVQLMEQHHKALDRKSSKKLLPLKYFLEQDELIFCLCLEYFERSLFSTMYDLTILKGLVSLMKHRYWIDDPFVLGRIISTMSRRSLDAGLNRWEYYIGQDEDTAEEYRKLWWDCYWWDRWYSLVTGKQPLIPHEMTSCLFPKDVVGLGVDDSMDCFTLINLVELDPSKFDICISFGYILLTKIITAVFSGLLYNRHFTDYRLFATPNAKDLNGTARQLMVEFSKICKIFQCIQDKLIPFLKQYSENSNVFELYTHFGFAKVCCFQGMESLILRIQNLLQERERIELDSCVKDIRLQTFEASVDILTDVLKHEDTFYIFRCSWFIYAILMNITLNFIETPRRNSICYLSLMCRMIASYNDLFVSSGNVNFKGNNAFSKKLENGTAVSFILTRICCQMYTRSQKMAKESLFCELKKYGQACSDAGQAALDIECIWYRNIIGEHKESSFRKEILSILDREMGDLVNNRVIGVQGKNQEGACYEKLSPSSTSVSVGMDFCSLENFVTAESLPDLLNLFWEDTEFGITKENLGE
Test: PBM E-score (8-mer binding enrichment) (E-score (-0.5 to 0.5)); higher = stronger / more preferred TF binding
Details: protein concentration: 100 nM; construct: GST-full length
Description: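 Universal 'all 10-mer' protein binding microarrays (Agilent AMADID 015681) probed with GST-tagged S. cerevisiae TFs (full-length or DBD) made by in vitro transcription/translation (PURExpress), about 100-200 nM. Bound TF was detected with fluorescent anti-GST. Each ungapped 8-mer (which stands for itself and its reverse complement) is scored by the PBM enrichment score (E-score), a modified Wilcoxon-Mann-Whitney statistic from -0.5 to +0.5, computed with the Universal PBM Analysis Suite. Scale: above 0.35 generally sequence-specific binding.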

Sequence	PBM E-score
AAGTAAAT	0.131
CTGCTTTC	0.0885
ATGGACAC	0.18
AGCATACT	-0.105
ATTTGATA	0.11
AGATCTAG	-0.193
CTCGTACC	-0.031
CCATACTA	0.079
GCCTCGAC	-0.16
ACGTAAGG	-0.229
ATAGATAT	0.161
ACAACCTG	0.0217
ATACACCA	0.101
AGTGGGAG	-0.164
AGTGTCGC	0.00903
ATTTTCCC	0.00872
GGCACACC	-0.232
CGACTAAG	-0.0168
GTATTTAA	0.0858
TCTACGAA	-0.0342
TCTGCAGA	0.163
CCCTAGAA	-0.162
CAGAACGG	0.192
ACACGTAT	-0.0527
CGTCCCGA	0.0521

Retrieved one by one from the entries so far, 6 records:
Sequence	PBM E-score
AGCATACT	-0.105
TCTACGAA	-0.0342
GGCACACC	-0.232
ATGGACAC	0.18
GCCTCGAC	-0.16
ATACACCA	0.101

More entries follow.

Sequence	PBM E-score
CTACCGAC	0.0302
AAAACGGT	-0.133
GCCCAGCC	-0.114
ATTTTGAC	0.0934
AACCACCC	-0.173
ACTGATCC	-0.0992
GACTATAA	0.0619
CTGAAACC	0.186
AAACAAAT	0.171
GCAAAACC	-0.214
AATCACAG	-0.025
CAATTACG	0.00382
AGAATGTA	0.0283
CCCGAACA	0.0635
GGTTGCAA	-0.0127
CGAAATTC	0.168
AAGTACCT	-0.0917
ACGATCAC	-0.0656
ATGCTGGC	-0.199
ATTGGTTA	0.198
AATAGCCC	-0.225
AACTGCTT	-0.0392
CGGAAATA	0.424
ACGCCGCG	0.0694
TACGCGGA	0.163

Sequence	PBM E-score
CCATGTTC	-0.0898
AGATCCGG	0.263
AAAAGAAT	0.202
GACGCGAA	-0.0525
ACGCACGT	-0.181
ACGATAGA	-0.134
ACATAACG	0.0705
CCCCGTGC	0.0879
CCTTTATA	-0.145
TACGACAA	0.129
CGCGTACC	-0.0427
ACCACTCC	0.0166
ACAGGTAT	-0.0108
AGAAGATG	0.139
ATCGCGGA	-0.00991
AGCCTTTA	0.031
GTGCGAAC	-0.151
CTACAGTC	-0.13
AAGGGGAG	-0.258
CGGGTAGA	0.0241
CATCACCA	-0.206
ATTTGCGA	0.13
CCTCCACG	-0.15
CTGCAGTA	-0.142
ACCTTTTC	-0.076

Sequence	PBM E-score
TCTAAAAA	0.21
GTTTGACA	0.0632
TGAAAGAA	0.25
CCCGCCGC	0.134
GATATTTA	0.171
CGTCAACC	-0.137
TAGTTGCA	-0.0237
CAGGGAGG	-0.358
CCACGACA	-0.117
ACGCTGGA	-0.0411
CTGTTATC	-0.0267
ACCTCATG	-0.17
GCCGCAGC	0.00866
GGAGAATA	0.178
CAGAAGCG	0.0323
CGTGCGGC	0.0714
GCGGGTGA	0.0452
GTTTTAAA	0.131
GTGTCCAA	0.115
GTAATTAC	0.13
ACCGTAGC	-0.126
CCGGCGCG	0.305
TATGTAAA	0.202
ATCATCAG	0.0187
AGTATCAA	0.205

Sequence	PBM E-score
CGGTTGGA	-0.0321
AACAAGCA	0.0773
CCGCTTCG	-0.106
ATTGCAGG	0.0249
TTTACAAA	0.0727
ATTGAAAT	0.24
AGATGGTG	-0.16
CCACTACG	0.165
GGTGGGCA	-0.188
AAACGTCA	-0.173
ATTCGGTC	0.244
GAGACAGA	-0.0698
CAACGCGA	0.0604
ACGGACGC	-0.0536
GAACGAGA	-0.103
GTTGGCCA	-0.253
ACCGCGCA	-0.128
ACGACAAC	0.171
AGCGCTTA	0.0118
ATGTGAAC	-0.0834
TAAATTAA	0.191
ATTGCACC	-0.189
CCTTGATA	0.0337
ATATTAAT	0.283
ATCTAGCA	-0.152

Sequence	PBM E-score
GGCGCTTA	-0.151
ATATCTGC	-0.0205
ACGTCCCT	-0.168
ACGATAAA	0.0839
AAAGTAGG	-0.00788
AGAGGCTG	-0.385
GTTGACTA	-0.0838
GCCTTGGA	-0.074
AACTCTCT	-0.0235
ACATGTAA	0.173
ACTGCCCG	-0.0748
CTCAAACA	0.173
TAGGCCCA	-0.249
AACGCTTC	-0.0575
AACCACCA	-0.226
ACCGCGGG	0.291
CTAAAGAA	0.112
AGCCGCAT	0.0929
CTCTAGAC	-0.163
ACATACTA	0.184
ATGAAAAG	-0.151
CACCATTA	0.0324
ACTGCTTA	-0.0882
CATCTCGG	0.272
ATATGACG	0.128

Sequence	PBM E-score
AAATCGTC	-0.0506
ACCACAGA	-0.0365
AGAGCCAG	-0.327
AGCCCCGC	-0.183
GATGCCCC	-0.361
AAGTGGCA	-0.127
GATTAGCA	0.014
CTGCCTCA	-0.295
TCGCAACA	-0.0709
ATTGACCA	-0.178
CGCTAATA	0.108
GTTAAACA	0.205
GCAATGGA	-0.0333
ACTACCGG	0.00787
AAACAAGT	0.0344
CTGGGGCC	-0.262
ACCACATC	-0.0834
AACTTTGG	-0.0277
ATGTTGAG	-0.0804
GCAATTCC	0.076
CCAAATCG	-0.0539
CCTCAGAC	-0.1
ACAATACC	0.0469
GGGGTACA	-0.111
AACAGGTG	-0.205

Sequence	PBM E-score
GCACCCCC	-0.185
ACCGTGAT	0.0247
ACCTGACG	-0.246
ACCGGGTG	0.153
GGGGAACC	-0.224
TGGTCACA	0.0668
CTGACCAA	0.12
AGCAACCT	-0.172
AGCAGTAC	-0.142
ACCACGTC	-0.33
CTCTCGTA	-0.204
ACTAGCGA	-0.0311
AAACGGCA	0.153
ATACATCA	0.00369
GTCTTCAA	-0.0912
CCTTCAGC	-0.152
CAGACATA	-0.0208
CCGCGGAG	0.333
GATCACGA	-0.145
CGCGTAGC	-0.0173
CCCTACGG	-0.139
GACACTAC	0.114
CTAGAATA	0.118
ATACTCGC	0.0477
GGGCTCAA	-0.0175

Sequence	PBM E-score
GGATCCAC	-0.119
GATGCCGC	0.106
CAGAGGTA	-0.0358
CGAGCTCG	0.308
GGCGTAGA	0.0821
CTAACACC	-0.111
AATTCGCA	0.171
ACAGCTCC	0.0429
GATGTTCC	0.239
TACAATCA	0.0495
AAATGTAG	-0.241
AAGAGATA	-0.12
ATTCGTAC	0.162
GAGCACTA	-0.0483
ATCGCAAA	0.107
AAGATGGA	0.0149
GCTGCCCA	-0.15
AGCGTTGG	-0.251
GCTAATCA	0.0116
GCGCTGGA	-0.00416
TATTGCCA	-0.0502
ATTCGCTC	0.056
CGAAGTCA	0.0999
ATTGAGTG	0.0206
GATCAGGC	-0.0463

Look-ups from the entries so far:
PBM E-score with TACAATCA is entered as 0.0495
PBM E-score with GATGCCGC is entered as 0.106
PBM E-score with CTAACACC is entered as -0.111
PBM E-score with AAGAGATA is entered as -0.12

Continuation:

Sequence	PBM E-score
AGTCTAGA	-0.0765
TCCAAGGA	0.0378
GATCGACA	-0.0135
CCATTTGA	-0.117
CGTGCTAA	0.0262
GTCGCAGA	0.0583
AATCTTGT	0.0931
ACCCTCCC	0.0834
TACTCCAA	-0.186
AACGAAGG	-0.353
CTTCAGTC	-0.144
TCTTCGCA	-0.0174
ACGTCAAC	-0.0414
GCAGAATA	0.0436
CAACTCAC	-0.0728
ACGAGCCC	-0.112
ATTCTATG	0.0987
AGGATATG	-0.172
ATACCGAA	0.322
TGAACAAA	0.223
ATACGGGC	0.0111
CAGTCTGG	-0.159
CTTTGCCC	-0.165
AGCGCGGA	0.0295
ACGCACTA	-0.0578

Some of the entries so far, as labelled records.
ATTTTCCC
  PBM E-score: 0.00872
AAAACGGT
  PBM E-score: -0.133

(list continues)

Sequence	PBM E-score
ATGTATGG	-0.118
CCCCTGAA	-0.111
ATCTATTA	0.136
AGACCCCC	-0.213
CATCCAAG	-0.0693
GCTAGTTA	0.0114
CCTTCAAG	-0.0749
AGCACGAT	-0.131
AAGGGTAG	-0.276
ACGATGCA	0.025
ATAGTAGA	-0.0627
ACTGTTGA	-0.0706
AGTATCTG	-0.0852
TATATGAA	0.2
GAGGTATA	-0.0667
ATGTTCAA	0.134
CGTGGTTA	-0.148
ACAATGCA	0.136
CAGGTTGG	-0.105
CCGCACGG	0.0506
CCGCCTTA	-0.153
CGAAAGCC	-0.0408
AAGTTCCT	0.0951
AGTACTAA	0.0533
AAGACACG	0.0503

Sequence	PBM E-score
AGTCCGTC	0.134
AGATTCCA	0.126
TCTGGCCA	-0.199
ATGGGGCG	-0.183
ATCGACGC	-0.0262
GCGATACC	-0.141
CCTTAGCA	-0.035
AGAACTGA	0.119
GGCCAGAC	0.0143
GGATTAAA	0.18
GCGGTTGA	0.113
ATTTAGTA	0.328
TATACGAA	0.157
GGCCAACC	-0.0334
ACACTCCT	-0.0406
AATGATAA	0.283
AATTCCAC	0.198
AAGTTCAT	0.155
AGGGAGTA	-0.2
CACGTTGC	-0.129
GGACCCCC	-0.249
GAGCGCGC	0.0371
AGGCGGCC	-0.00396
AGGTCGAC	-0.149
ACTTGCAC	-0.0693

Sequence	PBM E-score
AGACCACC	-0.127
AAACGTAT	0.0421
ACCGTAAA	0.0422
ACTGGCAA	-0.0748
AAATGTGG	-0.0232
GCGCAAAA	0.0977
CTTGGGCC	-0.186
AAATATGG	-0.132
ATCAAGGG	0.106
CAGGATTA	0.0532
GTATCAAC	0.00497
CGAGCACC	-0.0271
ACGACGAT	0.111
TACGCATA	-0.00972
CTTGTCGC	-0.0873
TATCGAAA	0.178
ACTGAGAT	-0.194
AACTAAAG	0.112
AGGGAACA	0.00359
GCGCCCGC	-0.15
GCGATCCC	-0.0563
TCAATTGA	0.144
CCAGCGCG	0.00494
CATCGGTC	-0.0107
GCAAGAAC	0.146

Sequence	PBM E-score
CATCTTCA	-0.195
CAGAGATG	-0.0692
CCTGACTC	-0.11
AGACCTTC	-0.185
GCCCATCA	-0.241
AACTGAAA	0.0988
CCCAAGAC	-0.0238
CTCTCGCA	-0.217
CCCTTGTA	-0.242
TAGGCACA	-0.165
GTGATTTA	0.193
TCCGGGAA	0.37
CAGAGATC	-0.0176
AATTTTTG	0.188
CCCTCACG	-0.193
AATCGTGG	0.0154
GCATGCCC	0.00887
GGGTTGAC	-0.222
AAAAGGAG	-0.0435

From the supplement of paper PMC3334620
